No constants are given. Whether binding was seen depends on the method and setting. In cells and extracts the contact can be indirect. Some entries that bind do so weakly or less than the wild type. For some of these results: Sequences can lack the tags named with a protein.
Columns and labels:
[1] = target: Myc-tagged AGO2 (Argonaute2), wild type (UniProt Q9UKV8); test: co-IP; two tagged proteins co-transfected into 293T cells; lysis in RIPA buffer (50 mM Tris-HCl pH7.4, 150 mM NaCl, 1% NP-40); IP with anti-Myc or anti-Flag antibody and protein A/G-agarose at 4 °C overnight, Western blotting
[2] = target: endogenous AGO2 (human (endogenous in 293T)) (UniProt Q9UKV8); test: co-IP; ectopically expressed HA-P300 with endogenous AGO2 (Figure S2B); RIPA buffer lysate; precipitating antibody not given
Flag-tagged HDAC7 = target: T1, Flag-tagged HDAC7 (UniProt Q8WUI4); test: co-IP; two tagged proteins co-transfected into 293T cells; lysis in RIPA buffer (50 mM Tris-HCl pH7.4, 150 mM NaCl, 1% NP-40); IP with anti-Myc or anti-Flag antibody and protein A/G-agarose at 4 °C overnight, Western blotting
T1 sequence: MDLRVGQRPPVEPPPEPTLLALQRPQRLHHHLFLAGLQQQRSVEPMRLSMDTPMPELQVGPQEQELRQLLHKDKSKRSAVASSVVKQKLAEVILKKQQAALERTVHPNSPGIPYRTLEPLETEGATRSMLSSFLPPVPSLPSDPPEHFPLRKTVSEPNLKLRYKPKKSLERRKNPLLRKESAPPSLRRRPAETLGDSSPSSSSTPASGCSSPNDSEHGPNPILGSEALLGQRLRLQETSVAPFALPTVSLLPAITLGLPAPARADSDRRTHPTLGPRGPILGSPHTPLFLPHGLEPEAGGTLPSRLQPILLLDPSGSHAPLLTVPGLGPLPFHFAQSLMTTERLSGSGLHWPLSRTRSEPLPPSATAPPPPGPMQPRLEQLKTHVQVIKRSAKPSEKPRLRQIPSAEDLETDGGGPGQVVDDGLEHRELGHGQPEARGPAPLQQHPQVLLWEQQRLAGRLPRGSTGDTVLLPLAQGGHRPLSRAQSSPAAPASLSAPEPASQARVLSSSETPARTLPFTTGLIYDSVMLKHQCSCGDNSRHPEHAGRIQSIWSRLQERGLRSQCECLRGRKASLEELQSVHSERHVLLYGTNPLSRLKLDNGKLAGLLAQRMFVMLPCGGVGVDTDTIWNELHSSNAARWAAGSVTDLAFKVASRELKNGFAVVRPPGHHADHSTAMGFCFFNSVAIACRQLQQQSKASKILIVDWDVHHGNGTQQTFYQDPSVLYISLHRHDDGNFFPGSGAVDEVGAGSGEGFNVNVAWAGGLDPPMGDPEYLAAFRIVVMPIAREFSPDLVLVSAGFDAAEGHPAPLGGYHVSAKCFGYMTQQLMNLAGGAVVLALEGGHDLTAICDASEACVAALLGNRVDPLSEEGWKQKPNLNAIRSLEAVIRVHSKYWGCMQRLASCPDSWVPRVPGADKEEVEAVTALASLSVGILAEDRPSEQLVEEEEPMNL

Amino acid sequences for entries named in this document (tags omitted). A change or cut given only in a name is not applied to a line headed by its entry.
UniProt Q9UKV8: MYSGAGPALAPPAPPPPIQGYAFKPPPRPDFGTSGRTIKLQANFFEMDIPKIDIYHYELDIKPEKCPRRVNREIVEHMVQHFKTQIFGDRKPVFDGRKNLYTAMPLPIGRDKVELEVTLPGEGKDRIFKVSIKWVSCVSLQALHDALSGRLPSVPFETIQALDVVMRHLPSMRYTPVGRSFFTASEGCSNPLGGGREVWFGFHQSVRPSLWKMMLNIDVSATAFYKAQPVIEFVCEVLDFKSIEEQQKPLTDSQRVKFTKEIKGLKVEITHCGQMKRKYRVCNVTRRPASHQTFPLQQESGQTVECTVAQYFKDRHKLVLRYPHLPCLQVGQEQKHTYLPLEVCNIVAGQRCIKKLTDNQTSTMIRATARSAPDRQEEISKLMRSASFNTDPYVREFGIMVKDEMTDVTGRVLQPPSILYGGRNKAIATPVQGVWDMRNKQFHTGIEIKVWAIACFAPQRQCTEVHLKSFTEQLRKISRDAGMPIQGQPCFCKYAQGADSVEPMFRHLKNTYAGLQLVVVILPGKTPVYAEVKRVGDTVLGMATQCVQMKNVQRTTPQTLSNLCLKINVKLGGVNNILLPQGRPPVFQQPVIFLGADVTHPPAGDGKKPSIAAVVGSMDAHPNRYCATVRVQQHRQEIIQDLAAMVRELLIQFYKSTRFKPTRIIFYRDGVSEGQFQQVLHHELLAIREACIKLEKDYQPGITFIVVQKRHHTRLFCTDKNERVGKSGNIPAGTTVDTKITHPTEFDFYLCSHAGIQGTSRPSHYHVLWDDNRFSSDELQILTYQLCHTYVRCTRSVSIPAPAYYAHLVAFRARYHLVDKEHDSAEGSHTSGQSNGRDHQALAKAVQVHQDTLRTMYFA
UniProt Q92793: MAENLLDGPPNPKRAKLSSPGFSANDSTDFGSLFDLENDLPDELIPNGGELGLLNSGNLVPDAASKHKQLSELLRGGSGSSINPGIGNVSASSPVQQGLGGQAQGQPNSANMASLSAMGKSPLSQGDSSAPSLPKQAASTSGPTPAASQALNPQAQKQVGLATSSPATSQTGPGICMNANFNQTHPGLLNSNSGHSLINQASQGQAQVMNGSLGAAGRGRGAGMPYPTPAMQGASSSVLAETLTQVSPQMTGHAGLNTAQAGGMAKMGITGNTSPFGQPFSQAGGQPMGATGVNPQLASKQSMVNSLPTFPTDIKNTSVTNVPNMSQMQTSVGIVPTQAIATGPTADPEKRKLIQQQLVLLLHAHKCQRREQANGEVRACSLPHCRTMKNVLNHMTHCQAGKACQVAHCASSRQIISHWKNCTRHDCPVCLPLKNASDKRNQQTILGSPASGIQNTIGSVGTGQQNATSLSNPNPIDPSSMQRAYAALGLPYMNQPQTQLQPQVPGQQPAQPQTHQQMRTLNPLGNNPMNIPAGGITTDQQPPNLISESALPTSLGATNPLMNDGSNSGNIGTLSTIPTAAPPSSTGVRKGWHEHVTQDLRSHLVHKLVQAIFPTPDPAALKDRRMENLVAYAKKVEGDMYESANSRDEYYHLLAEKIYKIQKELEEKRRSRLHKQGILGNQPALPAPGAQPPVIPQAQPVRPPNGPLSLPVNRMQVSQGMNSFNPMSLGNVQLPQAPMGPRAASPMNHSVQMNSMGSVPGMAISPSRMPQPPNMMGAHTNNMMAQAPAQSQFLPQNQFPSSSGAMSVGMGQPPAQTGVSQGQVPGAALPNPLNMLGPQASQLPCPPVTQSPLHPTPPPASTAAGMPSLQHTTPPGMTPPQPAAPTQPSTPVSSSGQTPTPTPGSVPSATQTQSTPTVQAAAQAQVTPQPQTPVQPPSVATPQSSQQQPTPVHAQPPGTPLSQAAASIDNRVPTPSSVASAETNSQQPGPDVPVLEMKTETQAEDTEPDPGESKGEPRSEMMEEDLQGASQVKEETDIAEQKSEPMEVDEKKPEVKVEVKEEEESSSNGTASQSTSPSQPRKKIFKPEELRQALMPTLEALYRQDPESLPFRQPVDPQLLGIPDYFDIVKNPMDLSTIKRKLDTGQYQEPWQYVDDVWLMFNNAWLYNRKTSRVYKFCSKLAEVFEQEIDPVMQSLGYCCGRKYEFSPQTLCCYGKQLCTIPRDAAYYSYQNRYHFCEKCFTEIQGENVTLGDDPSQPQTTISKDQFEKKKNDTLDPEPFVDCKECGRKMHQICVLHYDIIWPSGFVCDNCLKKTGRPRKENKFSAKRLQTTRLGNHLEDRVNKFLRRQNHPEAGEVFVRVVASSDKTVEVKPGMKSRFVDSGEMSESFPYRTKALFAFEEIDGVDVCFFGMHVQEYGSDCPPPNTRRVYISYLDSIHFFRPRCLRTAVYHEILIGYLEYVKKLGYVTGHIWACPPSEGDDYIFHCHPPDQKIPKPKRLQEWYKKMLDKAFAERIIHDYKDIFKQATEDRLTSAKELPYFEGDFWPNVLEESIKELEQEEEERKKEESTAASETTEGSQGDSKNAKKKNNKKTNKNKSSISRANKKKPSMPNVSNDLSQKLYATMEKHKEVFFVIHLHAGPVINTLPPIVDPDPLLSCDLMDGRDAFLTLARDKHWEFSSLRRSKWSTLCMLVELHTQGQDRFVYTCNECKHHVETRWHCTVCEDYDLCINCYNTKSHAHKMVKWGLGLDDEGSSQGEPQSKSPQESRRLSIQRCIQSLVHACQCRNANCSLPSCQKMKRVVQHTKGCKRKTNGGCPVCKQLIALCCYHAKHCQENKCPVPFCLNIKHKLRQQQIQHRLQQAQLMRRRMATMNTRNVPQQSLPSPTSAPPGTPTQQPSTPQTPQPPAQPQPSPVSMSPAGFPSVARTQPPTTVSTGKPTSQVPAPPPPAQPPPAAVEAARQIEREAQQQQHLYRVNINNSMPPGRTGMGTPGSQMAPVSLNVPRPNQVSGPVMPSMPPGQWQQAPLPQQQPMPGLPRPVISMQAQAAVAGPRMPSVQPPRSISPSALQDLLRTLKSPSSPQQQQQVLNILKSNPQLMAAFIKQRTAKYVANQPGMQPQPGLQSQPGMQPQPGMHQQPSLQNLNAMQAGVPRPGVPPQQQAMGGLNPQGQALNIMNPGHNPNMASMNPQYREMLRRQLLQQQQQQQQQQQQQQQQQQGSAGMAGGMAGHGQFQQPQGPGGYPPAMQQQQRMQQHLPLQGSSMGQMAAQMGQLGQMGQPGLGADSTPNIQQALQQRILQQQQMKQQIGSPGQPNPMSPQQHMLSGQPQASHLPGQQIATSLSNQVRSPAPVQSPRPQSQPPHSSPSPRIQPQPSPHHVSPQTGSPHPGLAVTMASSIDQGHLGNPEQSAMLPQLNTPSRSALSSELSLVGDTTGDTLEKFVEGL
UniProt Q9UPY3: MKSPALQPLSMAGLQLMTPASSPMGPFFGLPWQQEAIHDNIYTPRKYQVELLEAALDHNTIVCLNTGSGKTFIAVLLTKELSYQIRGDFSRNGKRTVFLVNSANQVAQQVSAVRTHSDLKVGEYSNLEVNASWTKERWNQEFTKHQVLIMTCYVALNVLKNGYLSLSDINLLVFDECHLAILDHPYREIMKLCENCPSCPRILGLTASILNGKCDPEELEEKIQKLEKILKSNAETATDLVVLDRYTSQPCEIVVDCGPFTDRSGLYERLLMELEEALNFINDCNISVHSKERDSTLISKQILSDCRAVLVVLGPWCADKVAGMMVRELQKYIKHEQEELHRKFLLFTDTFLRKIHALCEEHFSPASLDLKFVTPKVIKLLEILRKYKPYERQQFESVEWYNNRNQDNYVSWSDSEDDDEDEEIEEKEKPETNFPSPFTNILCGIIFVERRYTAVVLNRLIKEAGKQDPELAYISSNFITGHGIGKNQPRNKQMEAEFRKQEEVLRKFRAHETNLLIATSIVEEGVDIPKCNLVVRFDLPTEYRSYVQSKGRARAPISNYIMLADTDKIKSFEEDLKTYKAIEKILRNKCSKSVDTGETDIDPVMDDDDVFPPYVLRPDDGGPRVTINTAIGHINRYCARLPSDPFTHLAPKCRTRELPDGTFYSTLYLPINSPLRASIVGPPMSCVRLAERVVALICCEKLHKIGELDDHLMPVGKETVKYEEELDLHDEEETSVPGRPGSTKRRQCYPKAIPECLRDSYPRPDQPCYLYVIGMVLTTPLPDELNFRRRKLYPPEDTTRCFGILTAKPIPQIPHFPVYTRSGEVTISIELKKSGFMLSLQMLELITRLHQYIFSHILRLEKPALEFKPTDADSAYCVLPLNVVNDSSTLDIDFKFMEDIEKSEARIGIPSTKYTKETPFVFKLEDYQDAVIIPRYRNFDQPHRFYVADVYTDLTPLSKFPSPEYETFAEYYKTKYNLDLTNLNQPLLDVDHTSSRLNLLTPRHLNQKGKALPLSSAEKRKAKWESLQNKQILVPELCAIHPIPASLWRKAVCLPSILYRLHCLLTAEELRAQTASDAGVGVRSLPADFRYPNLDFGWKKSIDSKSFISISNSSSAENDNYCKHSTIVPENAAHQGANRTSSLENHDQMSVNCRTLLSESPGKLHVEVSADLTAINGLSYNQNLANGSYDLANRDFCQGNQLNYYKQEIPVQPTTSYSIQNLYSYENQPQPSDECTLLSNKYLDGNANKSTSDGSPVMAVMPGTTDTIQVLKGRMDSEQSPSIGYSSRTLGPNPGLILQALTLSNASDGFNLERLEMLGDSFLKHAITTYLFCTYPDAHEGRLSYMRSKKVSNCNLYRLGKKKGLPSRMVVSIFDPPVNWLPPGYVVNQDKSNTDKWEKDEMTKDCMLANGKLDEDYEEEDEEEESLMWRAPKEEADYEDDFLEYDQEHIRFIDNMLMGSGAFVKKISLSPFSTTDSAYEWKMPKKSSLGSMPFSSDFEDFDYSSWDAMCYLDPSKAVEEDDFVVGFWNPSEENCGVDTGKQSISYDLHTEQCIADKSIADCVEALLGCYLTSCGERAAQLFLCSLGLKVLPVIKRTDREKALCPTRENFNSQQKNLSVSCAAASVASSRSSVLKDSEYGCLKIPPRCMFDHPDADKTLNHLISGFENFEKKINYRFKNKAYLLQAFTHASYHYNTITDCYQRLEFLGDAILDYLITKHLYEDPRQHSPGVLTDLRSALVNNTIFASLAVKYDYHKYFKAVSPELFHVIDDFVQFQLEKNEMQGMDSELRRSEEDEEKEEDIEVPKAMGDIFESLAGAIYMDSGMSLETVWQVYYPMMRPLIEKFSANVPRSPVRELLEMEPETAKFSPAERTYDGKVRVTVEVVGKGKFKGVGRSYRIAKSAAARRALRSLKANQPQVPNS

[3] = target: T2, endogenous HDAC7 (human (endogenous in 293T)) (UniProt Q8WUI4); test: co-IP; endogenous proteins of 293T lysate; IP with anti-AGO2 or anti-HDAC7 antibody, normal IgG as negative control, Western blotting
T2 sequence: T1 sequence

[4] = target: Myc-tagged AGO2 (Argonaute2), wild type (UniProt Q9UKV8); test: co-IP; Myc-AGO2-WT or mutants transfected individually into 293T cells; IP with Myc antibody, endogenous DICER immunoblotted with DICER antibody (Figure S6)
Myc-tagged AGO2 K355R = Myc-tagged AGO2 K355R (UniProt Q9UKV8); test: as above
Myc-tagged AGO2 K493R = Myc-tagged AGO2 K493R (UniProt Q9UKV8); test: as above
Myc-tagged AGO2 K720R = Myc-tagged AGO2 K720R (UniProt Q9UKV8); test: as above
[5] = target: Myc-tagged AGO2-3KR (K355R, K493R, K720R) (UniProt Q9UKV8); test: as above

HA-tagged CBP (cAMP response element-binding protein binding protein, printed as 'a cAMP response element-binding protein') (from UniProt Q92793 1-2442) (enzyme)
binding [1]: binds

HA-tagged P300 (E1A-binding protein) (from UniProt Q09472 1-2414) (enzyme)
binding [2]: binds
binding [1]: binds

Myc-tagged AGO2 (Argonaute2), wild type (from UniProt Q9UKV8 1-859)
binding (Flag-tagged HDAC7): binds

endogenous AGO2 (from UniProt Q9UKV8 1-859)
binding [3]: binds

endogenous DICER (from UniProt Q9UPY3 1-1922) (enzyme)
binding [4]: binds
binding (Myc-tagged AGO2 K355R): binds
binding (Myc-tagged AGO2 K493R): binds
binding (Myc-tagged AGO2 K720R): binds
binding [5]: binds
